# No constants are given. Whether binding was seen depends on the method and setting. Binding seen in cells or lysates may run through a third protein. Binding calls can cover weak binding; strength is not graded here. Tags and fused reporters may be left off the sequences shown.
# B1: mouse Amy1, 3x Flag-tagged (pCAX-mAmy1-Flag) (protein, UniProt P00687 16-511)
# chain: QYDPHTQYGRTAIVHLFEWRWVDIAKECERYLAPNGFAGVQVSPPNENIVVHSPSRPWWERYQPISYKICSRSGNEDEFRDMVNRCNNVGVRIYVDAVINHMCGVGAQAGQSSTCGSYFNPNNRDFPGVPYSGFDFNDGKCRTASGGIENYQDAAQVRDCRLSGLLDLALEKDYVRTKVADYMNHLIDIGVAGFRLDASKHMWPGDIKAILDKLHNLNTKWFSQGSRPFIFQEVIDLGGEAVSSNEYFGNGRVTEFKYGAKLGKVMRKWDGEKMSYLKNWGEGWGLMPSDRALVFVDNHDNQRGHGAGGASILTFWDARLYKMAVGFMLAHPYGFTRVMSSYYWPRNFQNGKDVNDWVGPPNNNGKTKEVSINPDSTCGNDWICEHRWRQIRNMVAFRNVVNGQPFANWWDNDSNQVAFGRGNKGFIVFNNDDWALSETLQTGLPAGTYCDVISGDKVDGNCTGIKVYVGNDGKAHFSISNSAEDPFIAIHAESKI
# Molecular target: human IRE1β K547A, 3x HA-tagged (pCAG-hIRE1β-HA K547A) (human)
# Assay: co-IP; HEK293T cells co-transfected with Flag-tagged model protein and HA-tagged IRE1; lysis in TNE buffer (10 mM Tris-HCl pH 7.5, 1% NP-40, 150 mM NaCl, 1 mM EDTA); anti-HA (12CA5) immunoprecipitation on protein G Sepharose; anti-Flag Western blot
binder,measurement,value
B1,binding,binds

# From paper PMC3517461
